The values below come from US9801908B2, “Treatment for chitin-containing microorganisms” (BENCHMARK ANIMAL HEALTH LIMITED, priority 2013, dated 2017).

For the data set, the system named is Atlantic salmon eyed eggs.

For `OB(O)O` [boric acid], the “start of egg hatching relative to day 7 post challenge” value (BA 0.2, 0.6, 0.8, 1.0 and 1.4 g/L continuous) turned out to be 1 day later. Further, the “start of egg hatching” value (BA 0.4 and 1.2 g/L continuous (same day as non-treated group)) stood at 7 day post challenge.
